Experimental data: the supplement of paper PMC8256030
Values joined by “and” are separate entries in the source; they are usually repeats but may differ in a detail not shown here. Identical values can stand only once. This is one part of the list. Repeats in this data set agree poorly, so a single value says little.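 HEK293T cells were given each compound shortly before transfection with a reporter in which red mCherry is followed by the SARS-CoV-2 frameshift element and then GFP in the −1 frame, so GFP appears only after frameshifting.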

Tested on: HEK293T
Assay: percent viability (nuclei count) relative to control; higher = more viable cells
Conditions: 10 µM; 24 h

Row | SMILES | percent viability
1 | NCCCC[C@H](NC(=O)[C@@H]1CCCN1C(=O)[C@@H]1CSSC[C@H](N)C(=O)N[C@@H](Cc2ccccc2)C(=O)N[C@@H](Cc2ccccc2)C(=O)N[C@@H](CCC(N)=O)C(=O)N[C@@H](CC(N)=O)C(=O)N1)C(=O)NCC(N)=O [Felypressin] | 302%
2 | CCN(CC)S(=O)(=O)c1ccc(C(=O)O)cc1 [etebenecid] | 253%
3 | C[C@H](N)[C@H](O)c1cccc(O)c1 | 250%
4 | CC(CCc1ccc(O)cc1)NCCc1ccc(O)c(O)c1 (centres undefined) | 145% and 250%
5 | CN1CCN(C2=Nc3cc(F)ccc3Cc3ccccc32)CC1 [fluperlapine] | 278%
6 | Cc1nc2c([nH]1)c(=O)n(C)c(=O)n2Cc1ccco1 [furafylline] | 209%
7 | O=C(O)CCCCC1CCSS1 (centres undefined) | 179%
8 | COC(=O)[C@@H]1[C@H]2C[C@H]3c4[nH]c5ccccc5c4CCN3C[C@@H]2CC[C@@H]1O | 164%
9 | NC(=O)C(c1ccccc1)(c1ccccc1)[C@@H]1CCN(CCc2ccc3c(c2)CCO3)C1 [Enablex] | 342%
10 | NC[C@H](O)c1ccc(O)c(O)c1 | 284%
11 | OC[C@@H](O)CN1CCN(c2ccccc2)CC1 [levodropropizine] | 177%
12 | COc1ccc(CCNCC(O)COc2cccc(C)c2)cc1OC (centres undefined) [bevantolol] | 322%
13 | Cn1c(=O)c2c(ncn2CC2OCCO2)n(C)c1=O [doxofylline] | 226% and 196%
14 | CCOC(=O)C1=C(C)NC(C)=C(C(=O)OCC)C1c1ccccc1/C=C/C(=O)OC(C)(C)C [lacidipine] | 216%
15 | NCCS(=O)(=O)O [taurine] | 309%
16 | C[C@H](Cc1ccc(O)c(O)c1)[C@@H](C)Cc1ccc(O)c(O)c1 [Masoprocol] | 23.9%
17 | Cc1sc[n+](CC(=O)c2ccccc2)c1C [alagebrium chloride] | 215%
18 | NCCc1cnc[nH]1 | 206%
19 | CC1(C)Oc2ccc(C#N)cc2[C@H](N2CCCC2=O)[C@H]1O [cromakalim] | 143%
20 | CSc1ccc2c(c1)C(N1CCN(C)CC1)Cc1ccccc1S2 (centres undefined) [metitepine] | 222%

Row | SMILES | percent viability
21 | CCCCCCc1ccc(O)cc1O | 180%
22 | CCC(C)(C)c1ccc(CC(C)CN2C[C@@H](C)O[C@@H](C)C2)cc1 (some centres undefined) [amorolfine] | 240% and 275%
23 | O=C(O)c1ccc(NC(=O)[C@H](Cc2ccc(O)cc2)NC(=O)c2ccccc2)cc1 [Chymex] | 240%
24 | CC(=O)Oc1cccc(O)c1 | 409%
25 | CC[C@H]1OC(=O)[C@H](C)C(=O)[C@H](C)[C@@H](O[C@@H]2O[C@H](C)C[C@H](N(C)C)[C@H]2O)[C@](C)(OC)C[C@@H](C)C(=O)[C@H](C)[C@H]2N(CCCCn3cnc(-c4cccnc4)c3)C(=O)O[C@]12C [Telithromycin] | 342%
26 | O=C(Nc1ccc(O)cc1)c1ccccc1O [osalmid] | 241%
27 | COc1ccc(Cl)cc1C(=O)NCCc1ccc(C(=O)O)cc1 [meglitinide] | 157%
28 | CCCCCN(CCCCC)C(=O)C(CCC(=O)O)NC(=O)c1ccc(Cl)c(Cl)c1 (centres undefined) [lorglumide] | 290% and 178%
29 | Nc1c2c(nc3ccccc13)CCCC2 [tacrine] | 303%
30 | C[C@H](CCC(=O)O)[C@H]1CC[C@H]2[C@@H]3C(=O)C[C@@H]4CC(=O)CC[C@]4(C)[C@H]3CC(=O)[C@]12C [dehydrocholate sodium] | 184%
31 | CCCCCCOC(=O)NC(=N)c1ccc(NCc2nc3cc(C(=O)N(CCC(=O)OCC)c4ccccn4)ccc3n2C)cc1 [dabigatran etexilate] | 80.2%
32 | C=C1/C(=C\C=C2/CCC[C@]3(C)[C@@H]([C@H](C)/C=C/[C@@H](O)C4CC4)CC[C@@H]23)C[C@@H](O)C[C@@H]1O [calcipotriol] | 183% and 248%
33 | NCCCC(O)(P(=O)(O)O)P(=O)(O)O | 264%
34 | NS(=O)(=O)c1ccc(S(=O)(=O)Nc2cccc3c(Cl)c[nH]c23)cc1 [indisulam] | 251%
35 | N=C(N)n1cccn1 [praxadine] | 87%
36 | CCc1cccc(CC)c1NC(=O)CN(CC(=O)O)CC(=O)O [etifenin] | 144%
37 | CC(C)(CO)[C@@H](O)C(=O)NCCC(=O)NCCSSCCNC(=O)CCNC(=O)[C@H](O)C(C)(C)CO | 236%
38 | O=C1c2ccccc2S(=O)(=O)N1CCCN1CCN(c2ncccn2)CC1 [revospirone] | 369%
39 | CNC(=C[N+](=O)[O-])NCCSCc1csc(CN(C)C)n1 | 162%
